We go through 24 sequences from the supplement of paper PMC10338343.

Assay [1] concerns MILI (PIWIL2) piRISC loaded with piRNA #1 (26 nt). The experiment in a line: pre-steady-state target cleavage rate (min^-1); higher = faster piRNA-guided slicing of the target. The following applies: guide: piRNA #1 5'p-UGAGGUAGUAGGUUGUAUAGUAUCCA; auxiliary factor: 500 nM mouse GTSF1. The method, boiled down: (§1)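 Active affinity-purified piRISC (1 nM) loaded with one synthetic guide was mixed with a transcribed, DNA-blocked target RNA library (0.1 nM), with or without 500 nM GTSF1 partner protein, in HEPES–potassium acetate buffer at 33 °C for 0–8 or 0–960 min. Uncleaved targets were sequenced, normalised to depth and to weakly complementary targets, and pooled across three trials, with k3 capped at 0.0001 min^-1. The pre-steady-state cleavage rate was determined with a burst-and-steady-state fit.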

Assay [2] deals with MIWI (PIWIL1) piRISC loaded with piRNA #1 (30 nt). The description is as above. As to conditions: guide: piRNA #1 5'p-UGAGGUAGUAGGUUGUAUAGUAUCCAGAGG; auxiliary factor: 500 nM mouse GTSF1. The gist of the method:
as §1

Assay [3] has as its system EfPiwi piRISC loaded with piRNA #1 (26 nt). In words: pre-steady-state target cleavage rate (min^-1); guide: piRNA #1 5'p-UGAGGUAGUAGGUUGUAUAGUAUCCA; MIWI and MILI are mouse PIWI proteins and EfPiwi is from a freshwater sponge; tags in brackets are library labels; higher = faster piRNA-guided slicing of the target. The following applies: auxiliary factor: 500 nM Ephydatia muelleri Gtsf1. The gist of the method:
as §1

± gives the standard deviation. The list shows a part of the results, in another mix than the full data. The uncertainty is large for many entries.

Regarding GGAGUGGAUACUAUACGAACCUACUACCUCA, the “pre-steady-state target cleavage rate” value came to 0.000528 ± 0.011 in assay [1] and 0.000683 ± 0.0081 in assay [2].
With GGAGACCUAUGAUAUGAGACCUACUACCUCA, the “pre-steady-state target cleavage rate” value in assay [1] worked out at 0.000495 ± 0.0077; in assay [2], 0.00015 ± 0.012; in assay [3], 0.00199 ± 0.0045.
For GGAGACCUAUGAUAACUACCUACUACGUCA, the entries for the “pre-steady-state target cleavage rate” value in assay [1], in assay [2] and in assay [3] were 0.000761 ± 0.0078, 0.000799 ± 0.0067 and 0.000378 ± 0.0076, respectively.
In the same order, the values of GGAGACCUAUGAUUACAACGUAGUACCUCA are 0.000617 ± 0.01, 0.000732 ± 0.0063 and 0.00201 ± 0.0058.
In the same order, the values of GGAGACCUAUGAUAUGUACCAAGUACCUCA are 0.000234 ± 0.023, 0.00037 ± 0.012 and 0.000144 ± 0.014.
In the same order, the values of GGAGACCUAUGAUAACAAGGUACUACCUCA are 0.00105 ± 0.006, 0.000741 ± 0.0071 and 0.000727 ± 0.0081.
Turning to GGAGACCUAUGAUUACACCUACUACCUCA, the “pre-steady-state target cleavage rate” value was found to be 0.000835 ± 0.0075 in assay [1] and 0.000695 ± 0.0053 in assay [2].
Turning to GGAGAGGAUACUAUACAACCUACUAGGUCA, the “pre-steady-state target cleavage rate” value in assay [1] was determined as 0.00138 ± 0.0052; in assay [2], 0.00172 ± 0.0031; in assay [3], 0.00277 ± 0.0032.
In the same order, the values of GGAGACCUAUGAUUACAACCAACUACGUCA are 0.00203 ± 0.0036, 0.000364 ± 0.0066 and 0.00152 ± 0.0061.
Take GGAGACCUAUGAUAACAACCUACAACCACA: the “pre-steady-state target cleavage rate” value in assay [1] was found to be 0.00184 ± 0.0042; in assay [2], 0.000146 ± 0.012; in assay [3], 0.000152 ± 0.034.
As to GGAGUGGAUACUAUACAAACCUACUACCUCA, the “pre-steady-state target cleavage rate” value was found to be 0.00274 ± 0.0034 in assay [1], 0.00188 ± 0.0044 in assay [2] and 0.0643 ± 0.023 in assay [3].
In the same order, the values of GGAGACCUAUGAAUACAACCUACAACCUGA are 0.000919 ± 0.0057, 0.000114 ± 0.019 and 0.000272 ± 0.0094.
With GGAGACCUAUGAAUACAAGCUACUAGCUCA, the “pre-steady-state target cleavage rate” value was determined as 0.00622 ± 0.0027 in assay [1], 0.000161 ± 0.013 in assay [2] and 0.000352 ± 0.008 in assay [3].
In the same order, the values of “GGAGACCAUACUAUACAACCUACUACCUCU [g2:g23:cont:t1U]” are 0.254 ± 0.024, 1.7 ± 0.11 and 1.45 ± 0.55.
Turning to GGAGACCUAUGAUAACAACCUACAAGCUCA, the entries for the “pre-steady-state target cleavage rate” value in assay [1] and in assay [2] were 0.00163 ± 0.0042 and 0.000121 ± 0.022, respectively.
For the sequence GGAGACCUAUGAUAACAACCCUACUACCUCA, the “pre-steady-state target cleavage rate” value in assay [1] was 0.000626 ± 0.0087; in assay [2], 0.000158 ± 0.013; in assay [3] it was 0.000587 ± 0.013.
Take GGAGACCUAUGAUAUCAACCUACUAGCUCA: the “pre-steady-state target cleavage rate” value in assay [1] worked out at 0.0019 ± 0.0031; in assay [2], 0.000135 ± 0.014; in assay [3], 0.000706 ± 0.0087.
As for GGAGACCUAUGAUAUCAACCUACUUGCUCA, the “pre-steady-state target cleavage rate” value came out at 0.00113 ± 0.0046 in assay [1] and 0.000103 ± 0.02 in assay [2].
With GGAGACCUAUGAAUACAACCUAGUACCUCA, the “pre-steady-state target cleavage rate” value in assay [1] turned out to be 0.00177 ± 0.0027; in assay [2] it was 0.00146 ± 0.0016; in assay [3], 0.00145 ± 0.0031.
GGAGACCUAUGAAUACUAACCUACUACCUCA: the figures for the “pre-steady-state target cleavage rate” value in assay [1] and in assay [2] were 0.000865 ± 0.0091 and 0.000158 ± 0.027, respectively.
For GGAGACCUAUGUAUAGAACCUACUUCCUCA, the “pre-steady-state target cleavage rate” value in assay [1] stood at 0.00289 ± 0.0033; in assay [2], 0.000402 ± 0.0066; in assay [3], 0.000282 ± 0.013.
In the case of GGAGACCUAUGAAUACAACGAUCUACCUCA, the “pre-steady-state target cleavage rate” value is 0.000763 ± 0.006 in assay [1] and 0.000317 ± 0.012 in assay [2].
As for GGAGACCUAUGAUAUGUACCUAGCUACCUCA, the “pre-steady-state target cleavage rate” value in assay [1] came to 0.000271 ± 0.011; in assay [2], 0.000136 ± 0.02; in assay [3], 0.000169 ± 0.018.
With GGAGACCUAUGAAAACAACCUACUACGUCA, the “pre-steady-state target cleavage rate” value in assay [1] is 0.0014 ± 0.0038; in assay [2], 0.00161 ± 0.0035; in assay [3], 0.000265 ± 0.0076.
